This passage reports binding results from patent US20210388102A1.

Numbering of substitutions follows the chain as printed. No constants are given. Whether binding was seen depends on the method and setting. Binding calls can cover weak binding; strength is not graded here.

In assay [1] the target is His peptide-tagged soluble cynoADAM9 (cynoADAM9-His) (cynomolgus monkey). As to the kind of experiment: ELISA, cynoADAM9-His (1 µg/mL) captured by anti-His antibody.
Assay [2] shares this target. As to the kind of experiment: ELISA: His-tagged soluble cynoADAM9 (1 µg/mL) captured by plate-coated anti-His antibody; serial dilutions of antibody 0.03-1 µg/ml; readout RLU. A general note: An ELISA detects its analyte on a solid surface through an enzyme-linked reagent.

B1: hMAB-A (2B.2) (antibody, V domains shown)
VH: EVQLVESGGGLVKPGGSLRLSCAASGFTFSSYWMHWVRQAPGKGLEWVGEIIPIFGHTNYNEKFKSRFTISLDNSKNTLYLQMGSLRAEDTAVYYCARGGYYYYIGKGVLDYWGQGTTVTVSS
VL: DIVMTQSPDSLAVSLGERATISCKASQSVDYSGDSYMNWYQQKPGQPPKLLIYAASDLESGIPARFSGSGSGTDFTLTISSLEPEDFATYYCQQSHEDPFTFGQGTKLEIK
As for B1, the binding entry in assay [1] and in assay [2] was “binds” each time.

B2: hMAB-A (2J.2) (antibody, V domains shown)
VH: B1 VH with I105Y, G106N, K107S, V109T
VL: B1 VL
Regarding B2, the binding result in assay [1] and in assay [2] was “binds” each time.

B3: hMAB-A (2A.2) (antibody, V domains shown)
VH: B1 VH with I105F, G106N, K107S, V109T
VL: B1 VL
For B3, the binding result in assay [1] and in assay [2] was “binds” each time.

B4: hMAB-A (2H.2) (antibody, V domains shown)
VH: B1 VH with I105G, K107S
VL: B1 VL
Consider B4, for which the binding result in assay [1] and in assay [2] was “binds” each time.

B5: hMAB-A (2F.2) (antibody, V domains shown)
VH: B1 VH with I105F, G106H, K107S, V109T
VL: B1 VL
B5: the binding entry in assay [1] and in assay [2] was “binds” each time.

B6: hMAB-A (2G.2) (antibody, V domains shown)
VH: B1 VH with I105F, G106N, G108A
VL: B1 VL
Regarding B6, the binding result in assay [1] and in assay [2] was “binds” in each case.

B7: hMAB-A (2D.2) (antibody, V domains shown)
VH: B1 VH with I105T
VL: B1 VL
In the case of B7, the binding entry in assay [1] and in assay [2] was “binds” throughout.

B8: hMAB-A (2E.2) (antibody, V domains shown)
VH: B1 VH with I105D, G106S, K107N, G108A
VL: B1 VL
Take B8: the binding entry in assay [1] and in assay [2] was “binds” in each case.
